Article PMC11928714
Results are given in words; binding and its absence hold for the method and conditions named. For some of these results: Binding seen in cells or lysates may run through a third protein. Some entries that bind do so weakly or less than the wild type. Where a sequence is shown, tags or fusion partners need not be part of it. Each block holds one binder with its values, some of them ahead of it.

Tests used:
[1] = biological target: T1, OsZHD1 (yeast two-hybrid fusion) (rice (Oryza sativa L., ZH11)) (UniProt Q6YXH5); assay: two-hybrid; full-length OsZHD1 and OsZHD2 in pGBKT7 (BD) and pGADT7 (AD), co-transformed into yeast AH109; selection on SD/-Trp-Leu-His-Ade + X-alpha-gal
T1 sequence: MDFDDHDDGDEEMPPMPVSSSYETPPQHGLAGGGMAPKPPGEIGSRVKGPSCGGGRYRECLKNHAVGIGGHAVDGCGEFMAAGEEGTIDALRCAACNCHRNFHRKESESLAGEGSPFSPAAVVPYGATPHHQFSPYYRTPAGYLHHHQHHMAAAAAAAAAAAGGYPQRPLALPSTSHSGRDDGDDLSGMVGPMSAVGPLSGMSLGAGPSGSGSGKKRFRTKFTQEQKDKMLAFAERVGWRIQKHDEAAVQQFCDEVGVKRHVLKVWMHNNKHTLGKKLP

[2] = biological target: T2, OsZHD1-cYFP (rice (Oryza sativa L., ZH11)) (UniProt Q6YXH5); assay: split reporter; BiFC with split YFP; OsZHD1-cYFP and OsZHD2-nYFP co-infiltrated into N. benthamiana leaves; confocal microscopy after 36 to 48 h
T2 sequence: T1 sequence

[3] = biological target: T3, OsZHD1-GFP fusion protein (rice (Oryza sativa L., ZH11)) (UniProt Q6YXH5); assay: co-IP; OsZHD1-GFP or GFP co-expressed with OsZHD2-Myc in N. benthamiana leaves; enriched on GFP agarose beads at 4 °C, 2 h, washed three times with PBS; immunoblot with GFP and Myc antibodies
T3 sequence: T1 sequence

[4] = biological target: T4, OsZHD2 (yeast two-hybrid fusion) (rice (Oryza sativa L., ZH11)) (UniProt Q6ZB90); assay: two-hybrid; full-length OsZHD1 and OsZHD2 in pGBKT7 (BD) and pGADT7 (AD), co-transformed into yeast AH109; selection on SD/-Trp-Leu-His-Ade + X-alpha-gal
T4 sequence: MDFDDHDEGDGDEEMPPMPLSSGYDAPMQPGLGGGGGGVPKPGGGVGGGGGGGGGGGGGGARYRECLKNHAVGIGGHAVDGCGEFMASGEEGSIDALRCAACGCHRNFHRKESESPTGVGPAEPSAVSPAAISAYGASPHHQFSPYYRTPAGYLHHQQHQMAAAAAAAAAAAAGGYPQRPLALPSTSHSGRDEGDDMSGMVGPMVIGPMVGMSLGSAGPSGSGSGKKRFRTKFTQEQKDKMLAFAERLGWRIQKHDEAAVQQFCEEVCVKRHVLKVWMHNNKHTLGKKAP

binding [1]: binds
B1: OsZHD2 (yeast two-hybrid fusion) (protein, UniProt Q6ZB90 1-290)
chain: T4 sequence

binding [3]: binds
B3: OsZHD2-Myc fusion protein (protein, UniProt Q6ZB90 1-290)
chain: T4 sequence

More lines, now with the values behind:

B2: OsZHD2-nYFP (protein, UniProt Q6ZB90 1-290)
chain: T4 sequence
binding [2]: binds

B4: OsZHD1 (yeast two-hybrid fusion) (protein, UniProt Q6YXH5 1-279)
chain: T1 sequence
binding [4]: binds
